Experimental data reported in patent publication US20150074844A1.
No constants are given. Whether binding was seen depends on the method and setting. In cells and extracts the contact can be indirect. Some binding calls cover weakened binding; strength is not graded here.

Protein sequences, listed by entry. Tags and fused reporters are not part of them. Lines headed by an entry give the natural chain unless they say otherwise; changes in a name come on top.
UniProt P49597: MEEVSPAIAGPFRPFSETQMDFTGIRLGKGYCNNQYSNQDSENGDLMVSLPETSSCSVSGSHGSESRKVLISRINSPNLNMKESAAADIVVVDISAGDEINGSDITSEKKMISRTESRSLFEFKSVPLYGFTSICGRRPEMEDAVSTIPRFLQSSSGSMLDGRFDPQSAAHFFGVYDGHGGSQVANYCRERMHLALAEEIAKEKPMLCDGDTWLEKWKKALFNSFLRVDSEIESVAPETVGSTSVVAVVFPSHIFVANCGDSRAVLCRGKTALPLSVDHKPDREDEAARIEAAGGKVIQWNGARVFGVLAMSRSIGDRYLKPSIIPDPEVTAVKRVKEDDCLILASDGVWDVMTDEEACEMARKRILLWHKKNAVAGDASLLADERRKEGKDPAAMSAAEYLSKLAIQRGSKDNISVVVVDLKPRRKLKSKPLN
UniProt O49686: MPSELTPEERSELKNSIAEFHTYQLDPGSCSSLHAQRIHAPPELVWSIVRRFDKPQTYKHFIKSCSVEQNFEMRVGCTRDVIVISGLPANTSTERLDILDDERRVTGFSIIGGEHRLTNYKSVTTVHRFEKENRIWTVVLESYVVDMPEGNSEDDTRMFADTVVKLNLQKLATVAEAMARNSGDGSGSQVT

Molecular target: ABI1 without tag (purified recombinant) (Arabidopsis) (UniProt P49597)
Assay: His pull-down of purified recombinant proteins, SDS-PAGE/Coomassie; ABA-dependent

Substance: His-tagged PYR1 (from UniProt O49686 1-191) (receptor)
- binding: binds
